Experimental data published in article doi:10.1101/2020.05.04.070177.

Amino acid sequences for entries named in this document (tags omitted). Residues count along the entry.
UniProt Q14258, 439-630: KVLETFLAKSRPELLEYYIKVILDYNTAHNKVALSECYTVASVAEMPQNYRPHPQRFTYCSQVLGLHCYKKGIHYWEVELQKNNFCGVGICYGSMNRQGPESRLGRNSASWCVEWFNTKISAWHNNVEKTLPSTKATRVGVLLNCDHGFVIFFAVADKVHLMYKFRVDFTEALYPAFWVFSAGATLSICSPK
UniProt Q14258, 189-630: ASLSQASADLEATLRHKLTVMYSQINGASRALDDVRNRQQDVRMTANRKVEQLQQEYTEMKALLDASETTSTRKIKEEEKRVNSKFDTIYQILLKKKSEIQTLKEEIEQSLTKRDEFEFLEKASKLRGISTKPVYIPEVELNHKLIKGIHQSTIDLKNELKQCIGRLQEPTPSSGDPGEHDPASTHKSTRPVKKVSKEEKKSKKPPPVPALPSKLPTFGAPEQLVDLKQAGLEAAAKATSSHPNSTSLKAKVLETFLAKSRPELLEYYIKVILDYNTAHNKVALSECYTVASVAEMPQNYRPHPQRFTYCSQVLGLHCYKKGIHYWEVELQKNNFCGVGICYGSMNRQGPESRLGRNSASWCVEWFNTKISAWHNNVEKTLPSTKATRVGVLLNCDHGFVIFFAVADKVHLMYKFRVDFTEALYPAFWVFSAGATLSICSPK
UniProt Q14258, 189-379: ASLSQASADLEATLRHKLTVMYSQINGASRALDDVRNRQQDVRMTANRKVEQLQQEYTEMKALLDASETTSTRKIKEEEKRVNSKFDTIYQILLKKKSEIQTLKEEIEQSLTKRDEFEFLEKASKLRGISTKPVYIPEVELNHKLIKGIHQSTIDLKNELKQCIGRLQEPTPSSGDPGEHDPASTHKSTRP

Key:
TRIM25 PRY/SPRY [1] = target: TRIM25 PRY/SPRY (UniProt Q14258); test: NMR; conditions: residues 439-630
[2] = target: TRIM25 CC-PRY/SPRY 381-392 7KA (UniProt Q14258); test: ITC; conditions: residues 189-630
TRIM25 CC = TRIM25 CC (UniProt Q14258); test: ITC; conditions: assigned to CC by order; residues 189-379
TRIM25 PRY/SPRY [3] = target: TRIM25 PRY/SPRY (UniProt Q14258); test: ITC; conditions: residues 439-630

AUGGCUAGCUGGAGCCACCCGCAGUUCG / CGAACUGCGGGUGGCUCCAGCUAGCCAU [28-mer duplex RNA]
binding result (TRIM25 PRY/SPRY [1]; CSPs mostly at site 2, signal loss): binds

GUAUAGUUUAAAAGGAGAUAACUAUAC [pre-let-7a-1@2]
Kd ([2]; first of two fitted sites, text says short stem loop RNAs): 0.428 µM | Kd ([2]; second fitted site): 967 µM

UAAAAGGAGAU [pre-let-7 loop]
Kd (TRIM25 CC): 30 µM

UGAGUUGGA [Lnczc3h7a-SL loop]
binding result (TRIM25 PRY/SPRY [3]; too weak to be quantified): binds more weakly | Kd (TRIM25 CC): 32 µM | binding result (TRIM25 PRY/SPRY [1]; very weak CSPs at site 1): binds more weakly

UUUUAUCUGAGUUGGAGGUGAAG [Lnczc3h7a-SL]
binding result (TRIM25 PRY/SPRY [3]; very weak binding, assigned to PRY/SPRY by order): binds more weakly | Kd (TRIM25 CC): 14 µM

For part of these data: Weaker means in comparison with the reference protein, sequence or condition of that experiment. For at least one entry, the source does not settle the construct or the ends of the probe. For part of these data: At least one verdict rests on a figure or table, not on a statement of the authors.
